At least one structure is not confirmed: it was looked up by name or label, or the drawing left a doubt.
Test system: CT-26 cells
Test: Inhibitory effect on tumor growth in CT-26 cell-transplanted B-hPD-1 mice
Format: in vivo
Settings: toripalimab 1 mg/kg, palbociclib 100 mg/kg
Procedure: CT-26 cells were seeded subcutaneously on the right side of hPD-1 humanized female mice at a concentration of 2.5×10^5 cells/0.1 mL, and the mice were randomly grouped by tumor volume when tumors grew to about 93 mm^3 with 7 mice per group, for a total of 4 groups:
G1: Anti-KLH hIgG4 (1 mg/kg) negative control group;
G3: palbociclib (100 mg/kg);
The experiment was ended 11 days after the first administration. Tumor volume and body weight of mice were measured and recorded twice a week. At the end of the experiment, animals were euthanized and tumor growth inhibition (TGITv%) was calculated.

**Q.** How did the “Inhibitory effect on the tumor growth” value turn out when CC(=O)c1c(C)c2cnc(Nc3ccc(N4CCNCC4)cn3)nc2n(C2CCCC2)c1=O [palbociclib] was run?
**A.** Its value is “a certain inhibitory effect on the tumor growth”.
